Source: article PMC10883267 (2023)
Read-outs that look alike come from different tables or passages of the source. No constants are given. Whether binding was seen depends on the method and setting. Binding seen in cells or lysates may run through a third protein. For some of these results: Binding can be weak; no strength is given. Each block holds one molecule with its values, some of them ahead of it.

Chains of the proteins cited; added tags and fusions are not shown. Residues count along the entry.
UniProt Q13541, residues 50-83: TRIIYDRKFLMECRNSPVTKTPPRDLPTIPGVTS

Assays:
Assay in all cases: pull-down; His- and MBP-tagged eIF4E from E. coli lysate held on HisPur Ni-NTA magnetic beads (1 h, 4 °C), then soluble fraction of E. coli lysate with MBP-tagged 4EBM (1 h, 4 °C); 50 mM Tris-HCl pH 7.5, 100 mM NaCl, 1 mM DTT, 20 mM imidazole, 0.01% Tween-20; eluted with 500 mM imidazole; SDS-PAGE, Coomassie, quantified with Fiji
[1] = biological target: mouse eIF4E1B (63-244) with Trp101 mutated (dorsal surface mutant) (mouse) (UniProt Q3UTA9)
[2] = biological target: mouse eIF4E1B (63-244) with residues of the lateral surface mutated (mouse) (UniProt Q3UTA9)
[3] = biological target: T1, human eIF4E1B (60-242) (human) (UniProt A6NMX2)
T1 sequence: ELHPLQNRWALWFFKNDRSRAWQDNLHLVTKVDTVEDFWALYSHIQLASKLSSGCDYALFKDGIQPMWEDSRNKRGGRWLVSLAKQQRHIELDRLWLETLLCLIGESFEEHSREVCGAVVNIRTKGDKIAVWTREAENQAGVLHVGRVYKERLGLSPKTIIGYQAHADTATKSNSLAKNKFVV

[4] = biological target: T2, mouse eIF4E1B (63-244) (mouse) (UniProt Q3UTA9)
T2 sequence: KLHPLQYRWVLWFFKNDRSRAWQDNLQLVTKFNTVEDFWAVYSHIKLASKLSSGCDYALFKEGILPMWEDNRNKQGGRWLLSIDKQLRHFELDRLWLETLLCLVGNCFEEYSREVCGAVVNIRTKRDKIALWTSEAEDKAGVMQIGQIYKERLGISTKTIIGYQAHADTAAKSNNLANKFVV

[5] = biological target: zebrafish eIF4E1c (49-230) (zebrafish)
[6] = biological target: mouse eIF4E1B (63-244) with Trp101 mutated (dorsal surface mutant) (mouse) (UniProt Q3UTA9); remark: listed apart in the source
[7] = biological target: mouse eIF4E1B (63-244) with residues of the lateral surface mutated (mouse) (UniProt Q3UTA9); remark: listed apart in the source

binding [1]: no binding
binding [2]: no binding
Molecule: eIF4E-binding motif of human eIF4EBP1 (50-83) (from UniProt Q13541 50-83) (domain or fragment)

binding [3]: no binding
binding [4]: no binding
Molecule: eIF4E-binding motif of human eIF4G (608-647) (domain or fragment)

binding [5]: binds
binding [6]: no binding
binding [7]: binds
Molecule: PHRYTKEELLDIKELPHSKQRPSCLSEKYDSDGVWDP (domain or fragment, UniProt Q9NRA8 27-63) [eIF4E-binding motif of human eIF4ENIF1 (27-63)]
